Reference: patent US20070003983A1
Results are given in words; binding and its absence hold for the method and conditions named. For part of these data: Binding seen in cells or lysates may run through a third protein. Some entries that bind do so weakly or less than the wild type. Blank lines part the entries; values can stand above or below the molecule they belong to.

Columns and labels:
[1] = target: T1, human Notch2 N^TM fragment (about 110 kDa transmembrane/intracellular cleavage product) (human) (UniProt Q04721); experiment: co-immunoprecipitation with PGHN (intracellular epitopes) from 35S-pulse-labeled SJ-NB5 cells
T1 sequence: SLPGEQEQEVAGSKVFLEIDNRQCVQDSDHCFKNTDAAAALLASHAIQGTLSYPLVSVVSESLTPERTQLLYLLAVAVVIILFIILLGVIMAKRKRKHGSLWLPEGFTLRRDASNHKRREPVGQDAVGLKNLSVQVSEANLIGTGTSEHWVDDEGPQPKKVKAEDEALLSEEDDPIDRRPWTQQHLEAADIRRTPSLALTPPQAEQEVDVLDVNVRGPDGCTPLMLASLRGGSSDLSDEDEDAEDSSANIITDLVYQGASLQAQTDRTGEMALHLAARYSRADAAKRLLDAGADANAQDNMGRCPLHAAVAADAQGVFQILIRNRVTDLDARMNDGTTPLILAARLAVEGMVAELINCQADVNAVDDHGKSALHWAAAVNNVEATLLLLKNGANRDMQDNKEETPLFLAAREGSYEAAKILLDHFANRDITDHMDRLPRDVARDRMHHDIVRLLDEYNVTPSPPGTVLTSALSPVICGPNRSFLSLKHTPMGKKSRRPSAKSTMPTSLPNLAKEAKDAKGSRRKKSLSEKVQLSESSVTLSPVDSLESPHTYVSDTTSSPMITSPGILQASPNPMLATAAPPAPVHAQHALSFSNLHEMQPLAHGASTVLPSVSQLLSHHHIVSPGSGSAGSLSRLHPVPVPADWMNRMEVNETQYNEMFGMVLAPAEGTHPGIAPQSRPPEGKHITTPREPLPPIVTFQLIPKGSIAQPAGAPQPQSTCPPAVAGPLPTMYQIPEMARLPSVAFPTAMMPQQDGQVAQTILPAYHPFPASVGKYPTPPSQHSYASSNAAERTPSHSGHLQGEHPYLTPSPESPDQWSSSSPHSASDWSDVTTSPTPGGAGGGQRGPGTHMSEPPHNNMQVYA

[2] = target: T1, human Notch2 N^TM fragment (about 110 kDa transmembrane/intracellular cleavage product) (human); experiment: co-immunoprecipitation with PGHN from 35S-pulse-labeled SJ-NB5 cells
[3] = target: T1, human Notch2 N^TM fragment (about 110 kDa transmembrane/intracellular cleavage product) (human); experiment: pulse chase, surface biotinylation, PGHN immunoprecipitation then streptavidin precipitation
[4] = target: T2, Drosophila Notch N^TM fragment (110 kd) (Drosophila) (UniProt P07207); experiment: 5-20% sucrose gradient sedimentation of Triton X-100 S2 cell extracts, Western blot with C461.3B and 9C6
T2 sequence: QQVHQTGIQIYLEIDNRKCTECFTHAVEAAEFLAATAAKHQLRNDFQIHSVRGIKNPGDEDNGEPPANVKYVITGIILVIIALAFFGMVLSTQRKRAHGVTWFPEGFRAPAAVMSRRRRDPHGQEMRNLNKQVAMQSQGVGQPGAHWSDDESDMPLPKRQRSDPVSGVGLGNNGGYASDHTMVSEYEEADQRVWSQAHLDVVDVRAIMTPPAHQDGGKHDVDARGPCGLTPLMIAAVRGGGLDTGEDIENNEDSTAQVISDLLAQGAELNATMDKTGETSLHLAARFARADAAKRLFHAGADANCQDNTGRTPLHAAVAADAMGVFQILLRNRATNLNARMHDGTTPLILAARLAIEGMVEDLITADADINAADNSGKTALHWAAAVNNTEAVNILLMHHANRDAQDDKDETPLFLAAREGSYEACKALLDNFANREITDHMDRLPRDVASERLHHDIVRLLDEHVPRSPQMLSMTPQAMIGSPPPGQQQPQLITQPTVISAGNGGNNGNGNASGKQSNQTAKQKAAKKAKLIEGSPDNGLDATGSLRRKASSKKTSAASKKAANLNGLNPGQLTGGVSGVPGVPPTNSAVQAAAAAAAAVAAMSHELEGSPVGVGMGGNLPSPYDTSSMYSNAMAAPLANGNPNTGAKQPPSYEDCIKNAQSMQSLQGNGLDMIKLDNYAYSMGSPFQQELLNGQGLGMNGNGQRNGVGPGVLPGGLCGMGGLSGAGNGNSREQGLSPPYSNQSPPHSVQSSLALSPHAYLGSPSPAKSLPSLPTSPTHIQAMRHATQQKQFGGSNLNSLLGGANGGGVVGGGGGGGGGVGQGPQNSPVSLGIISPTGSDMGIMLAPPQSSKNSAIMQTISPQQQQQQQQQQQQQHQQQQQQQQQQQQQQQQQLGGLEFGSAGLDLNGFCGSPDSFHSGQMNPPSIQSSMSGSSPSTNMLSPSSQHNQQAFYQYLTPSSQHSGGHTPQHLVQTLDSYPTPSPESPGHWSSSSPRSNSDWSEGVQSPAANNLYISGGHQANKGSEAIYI

[5] = target: T2, Drosophila Notch N^TM fragment (110 kd) (Drosophila); experiment: conclusion from the EDTA release and sucrose gradient experiments
[6] = target: T2, Drosophila Notch N^TM fragment (110 kd) (Drosophila); experiment: Western blot (C461.3B) of supernatants of S2 cells kept 1 h in 2 mM CaCl2 or 2 mM EDTA
[7] = target: T2, Drosophila Notch N^TM fragment (110 kd) (Drosophila); experiment: release of N^EC from S2 cells in EDTA against CaCl2; sucrose density centrifugation
[8] = target: heterodimeric form of Drosophila Notch (N^EC/N^TM) on S2 cells (Drosophila) (UniProt P07207); experiment: co-immunoprecipitation with Delta antibodies from aggregates of Notch and Delta expressing S2 cells; lost when calcium is depleted by EGTA (data not shown)
[9] = target: heterodimeric form of Drosophila Notch (N^EC/N^TM) on S2 cells (Drosophila) (UniProt P07207); experiment: co-immunoprecipitation with Delta antibodies from aggregates of Notch and Delta expressing S2 cells, Western blot with 9C6

binding [1]: binds | binding [2]: binds | binding [3]: binds
Molecule: human Notch2 N^EC fragment (about 180 kDa extracellular cleavage product) (from UniProt Q04721 26-1608) (receptor)

binding [4]: binds | binding [5]: binds | binding [6]: binds | binding [7]: binds
Molecule: Drosophila Notch N^EC fragment (from UniProt P07207 53-1674) (receptor)

binding [8]: binds | binding [9]: binds
B1: Delta (ligand, Drosophila, UniProt P10041 19-833, looked up)
chain: QVHSSGSFELRLKYFSNDHGRDNEGRCCSGESDGATGKCLGSCKTRFRVCLKHYQATIDTTSQCTYGDVITPILGENSVNLTDAQRFQNKGFTNPIQFPFSFSWPGTFSLIVEAWHDTNNSGNARTNKLLIQRLLVQQVLEVSSEWKTNKSESQYTSLEYDFRVTCDLNYYGSGCAKFCRPRDDSFGHSTCSETGEIICLTGWQGDYCHIPKCAKGCEHGHCDKPNQCVCQLGWKGALCNECVLEPNCIHGTCNKPWTCICNEGWGGLYCNQDLNYCTNHRPCKNGGTCFNTGEGLYTCKCAPGYSGDDCENEIYSCDADVNPCQNGGTCIDEPHTKTGYKCHCANGWSGKMCEEKVLTCSDKPCHQGICRNVRPGLGSKGQGYQCECPIGYSGPNCDLQLDNCSPNPCINGGSCQPSGKCICPAGFSGTRCETNIDDCLGHQCENGGTCIDMVNQYRCQCVPGFHGTHCSSKVDLCLIRPCANGGTCLNLNNDYQCTCRAGFTGKDCSVDIDECSSGPCHNGGTCMNRVNSFECVCANGFRGKQCDEESYDSVTFDAHQYGATTQARADGLTNAQVVLIAVFSVAMPLVAVIAACVVFCMKRKRKRAQEKDDAEARKQNEQNAVATMHHNGSGVGVALASASLGGKTGSNSGLTFDGGNPNIIKNTWDKSVNNICASAAAAAAAAAAADECLMYGGYVASVADNNNANSDFCVAPLQRAKSQKQLNTDPTLMHRGSPAGSSAKGASGGGPGAAEGKRISVLGEGSYCSQRWPSLAAAGVAGACSSQLMAAASVAGSGAGTAQQQRSVVCGTPHM
